From paper PMC8931116

The chains behind the UniProt entries cited, without tags or fusion partners. Where a name states a change or a piece, a line headed by the entry shows the natural chain unless it says otherwise.
UniProt G3V612: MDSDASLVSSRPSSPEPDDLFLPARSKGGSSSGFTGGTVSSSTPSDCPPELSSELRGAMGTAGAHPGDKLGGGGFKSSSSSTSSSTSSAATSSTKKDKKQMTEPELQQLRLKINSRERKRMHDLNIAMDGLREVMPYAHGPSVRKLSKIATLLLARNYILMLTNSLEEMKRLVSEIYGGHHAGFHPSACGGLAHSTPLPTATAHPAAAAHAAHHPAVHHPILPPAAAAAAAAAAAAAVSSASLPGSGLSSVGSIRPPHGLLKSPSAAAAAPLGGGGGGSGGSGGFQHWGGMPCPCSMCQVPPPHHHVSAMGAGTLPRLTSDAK
UniProt Q8K1P7: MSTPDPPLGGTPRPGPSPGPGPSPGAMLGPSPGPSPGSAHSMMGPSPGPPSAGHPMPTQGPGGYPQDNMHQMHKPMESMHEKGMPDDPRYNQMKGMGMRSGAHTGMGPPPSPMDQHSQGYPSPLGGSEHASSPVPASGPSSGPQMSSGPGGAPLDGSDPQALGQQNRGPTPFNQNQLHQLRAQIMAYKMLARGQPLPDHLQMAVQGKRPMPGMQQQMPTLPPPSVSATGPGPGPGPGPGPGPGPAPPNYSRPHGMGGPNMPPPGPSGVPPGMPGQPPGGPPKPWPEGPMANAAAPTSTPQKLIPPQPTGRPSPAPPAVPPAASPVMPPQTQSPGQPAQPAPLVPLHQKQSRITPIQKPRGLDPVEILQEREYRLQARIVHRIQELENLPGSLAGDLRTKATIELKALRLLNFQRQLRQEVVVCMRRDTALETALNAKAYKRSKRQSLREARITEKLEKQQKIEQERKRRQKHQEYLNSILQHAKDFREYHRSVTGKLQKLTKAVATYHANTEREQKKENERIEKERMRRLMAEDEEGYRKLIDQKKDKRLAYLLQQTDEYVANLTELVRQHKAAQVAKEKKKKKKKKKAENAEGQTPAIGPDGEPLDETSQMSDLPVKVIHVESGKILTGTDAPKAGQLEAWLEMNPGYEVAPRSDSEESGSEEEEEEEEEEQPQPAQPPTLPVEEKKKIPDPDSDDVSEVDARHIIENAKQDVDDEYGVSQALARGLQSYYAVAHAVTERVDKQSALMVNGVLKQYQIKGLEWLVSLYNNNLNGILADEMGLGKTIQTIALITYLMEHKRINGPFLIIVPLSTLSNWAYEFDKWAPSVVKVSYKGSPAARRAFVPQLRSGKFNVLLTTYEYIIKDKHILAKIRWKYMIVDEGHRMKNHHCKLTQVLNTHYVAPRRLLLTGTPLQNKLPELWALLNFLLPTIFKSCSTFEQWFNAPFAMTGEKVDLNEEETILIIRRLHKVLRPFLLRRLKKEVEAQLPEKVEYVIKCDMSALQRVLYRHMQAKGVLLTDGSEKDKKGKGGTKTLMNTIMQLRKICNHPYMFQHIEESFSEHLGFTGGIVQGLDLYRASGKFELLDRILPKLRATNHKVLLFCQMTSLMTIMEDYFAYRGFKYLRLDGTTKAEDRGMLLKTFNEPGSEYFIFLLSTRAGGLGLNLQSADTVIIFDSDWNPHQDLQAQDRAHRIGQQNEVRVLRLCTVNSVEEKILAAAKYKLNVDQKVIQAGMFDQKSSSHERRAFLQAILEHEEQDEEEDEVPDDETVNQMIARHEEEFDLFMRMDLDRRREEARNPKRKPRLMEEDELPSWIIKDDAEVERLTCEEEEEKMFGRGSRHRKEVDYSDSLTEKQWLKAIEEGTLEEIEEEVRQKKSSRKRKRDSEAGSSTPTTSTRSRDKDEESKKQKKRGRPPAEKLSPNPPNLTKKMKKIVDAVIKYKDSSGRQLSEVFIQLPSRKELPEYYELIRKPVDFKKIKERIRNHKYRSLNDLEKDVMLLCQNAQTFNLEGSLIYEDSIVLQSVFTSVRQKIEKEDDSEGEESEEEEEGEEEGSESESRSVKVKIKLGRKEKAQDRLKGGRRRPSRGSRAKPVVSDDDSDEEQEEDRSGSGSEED

Biological target: OLIG2 (not stated (immunoprecipitated from rat iOLs)) (UniProt G3V612)
Test: co-IP; immunoprecipitation from rat iOLs (for OLIG2 and BRG1: Setdb1 knockdown rat iOLs); primary antibody 8 hr at 4 °C, protein A-Sepharose, western blotting

For BRG1 (from UniProt Q8K1P7 1-1613), the binding was “binds”.

These are yes or no findings as the source states them, for the method shown. In cells and extracts the contact can be indirect. A result given as binding can be weak or reduced; the word gives no strength.
